From PubChem BioAssay AID493014 (National Center for Advancing Translational Sciences (NCATS), 2011) come the findings set out here.

The list shows a part of the results. Further columns of the screen follow, without active or inactive calls. Compounds called inactive in the main read-out are mostly missing here. Potencies come from curve fits of mixed quality, noted in brackets.

This assay in a line: qHTS Assay to Find Inhibitors of Chronic Active B-Cell Receptor Signaling. The conditions noted are these: ABC-DLBCL IkBa-CBG/CBR reporter, luminescence ratio (green luciferase fused to IkBa over red control in TMD8 lymphoma cells), 4 h. The source says: NIH Molecular Libraries Probe Production Network [MLPCN] NIH Chemical Genomics Center [NCGC] MLPCN Grant: 1 R03 DA031086-01A1 PI Name: Dr. R. Eric Davis NCGC Assay Overview: Diffuse large B-cell lymphoma (DLBCL) is the most common category of non-Hodgkin lymphoma, with ~20,000 new cases per year in the United States. DLBCL should be regarded as a collection of different neoplasms. Microarray gene expression analysis has defined two principal types of DLBCL, named for their similarity to normal B cell stages or activation states: a germinal center B-cell (GCB) type, and an activated B-cell (ABC) type. In ABC-DLBCL, a constitutive high-level activity of the NF-kappaB family of transcription factors has been observed (1) and NF-kappaB target genes are more highly expressed in ABC primary tumors than in GCB tumors. Functional studies have shown a constitutive high-level activity of the IkappaB (inhibitor of kappa-B) kinase (IKK) complex. […] Further analysis of DLBCL primary tumors for NF-kappaB target gene expression imply that although CARD11 is required for constitutive IKK activity in all ABC-DLBCL lines, mutations in CARD11 may be the root cause of IKK activation only in lines or tumors with such mutations. In other words, CARD11 mutations may explain NF-kappaB activation in only 10% of ABC-DLBCL cases. […] This process has been termed 'chronic active BCR signaling' (CABS). The goal of this screen is to find small-molecule inhibitors of the CABS pathway found in ABC-DLBCL lines using a cell-based assay that measures IkappaBalpa stability, which has already been extensively validated in the OCI-Ly3 line (PubChem AID:445; REF: 4). […] The assay uses green (CBG68) and red (CBR) emitting beetle luciferases [Chroma-GloTM developed by Promega Corp.] where the green luciferase is fused to IkappaBalpha and the red luciferase is present in its native state. Both luciferase genes are stably present in the TMD8 human ABC DLBCL cell line, but their expression is under the control of tetracycline-inducible promoters. Following the addition of doxycycline to induce expression of the luciferases, the green luminescence in control cultures rises only slowly because the CBG fusion partner IkappaBalpha is targeted by IKK activity for rapid degradation. In contrast, green luminescence rises rapidly in the presence of proteasome inhibitors or IKK inhibitors. The rise in red luminescence of CBR is not affected by proteasome or IKK inhibitors, and serves as normalization for cell number and nonspecific effects. Compounds were screened as a concentration-titration series that ranged from 46 uM to 3 nM.
NCGC Assay Protocol Summary: Cells were seeded in 1536-well plates at 5000 cells/4uL in IMDM medium containing 0.5% FBS, w/o phenol red, 1% penicillin/streptomycin. Then, 23 nL of compounds or DMSO were delivered to each well using a pin tool. One uL 20ng/ml doxycycline was then dispensed into white solid 1536-well plates and the plates were incubated at 37C/5% C02 in a cell incubator for 4 hrs. Then 4 uL luminescent substrate mix (in-house prepared: 150 mM Tris-Cl, pH 7.6, 3 mM MgCl2, 1% Triton X-100, 5 mM DTT, 0.2 mM CoA, 0.15 mM ATP, 5 mM D-luciferin, final concentrations) was added to each well. The plate was incubated at r.t. for 10-15 min. The plates were measured on a ViewLux plate reader for green luminescence (540/20 nm filter) and red luminescence (618/8 nm filter). The green and red luminescent signals were corrected for red and green luminescence filter overlap using previously determined filter calibration constants (determined using the procedure outlined in the Promega Technical Manual; REF 4). The %Activity was determined from the ratio of corrected green/red luminescent values. MG132 were used as control. […] Red luminescent %Activity was normalized to the difference between red luminesence in basal cells (0%Activity) and zero luminescence (-100% Activity). […]

The mark [1] stands for this setting: measured here: IkBa-CBG green luminescence.
[2] abbreviates: measured here: CBR red luminescence, cell number.

As for `Cc1occc1C(=O)N/N=C/c1c(O)ccc2ccccc12`, under setting [1], the AC50 was 3.98 µM [falling, single point]. In the case of `CCn1c(SCC(=O)Nc2nc(-c3ccccc3)cs2)nnc1-c1ccccc1O`, under setting [2], the AC50 was 35.5 µM [falling, single point]. With `C/C(=N\NC(=O)c1cccs1)c1ccc2c(c1)OCO2`, the AC50 under setting [2] was 20 µM [falling, single point].

As to `Cc1ccc2c(c1C)NC(=O)CC(c1ccccc1O)=N2`, under setting [2], the AC50 was 35.5 µM [rising, single point]. As for `CS(=O)(=O)N1CCN(c2ccccc2NC(=O)c2cc3ccccc3o2)CC1`, the AC50 reads like this: under setting [2], 7.08 µM [falling, partial curve]; under setting [1], 5.01 µM [rising, partial curve, poor fit]. On to `COC(=O)CSc1nnc(CNc2ccc(OC)cc2)n1C`, for which, under setting [2], the AC50 was 35.5 µM [falling, single point]. With `CN(Cc1nc(-c2ccccc2)no1)C1CCOCC1`, the AC50 under setting [2] was 1.12 µM [rising, full curve, poor fit]. `CC(OC(=O)c1ccc(O)cc1)C(=O)Nc1nc(-c2ccccc2)cs1` (stereo not drawn): the AC50 under setting [2] was 8.2 µM [falling, partial curve].

Turning to `CCOc1ccc2nc(NS(=O)(=O)c3ccc(NC(C)=O)cc3)sc2c1`, the AC50 under setting [2] is 6.51 µM [falling, single point]. As to `Oc1oc(-c2ccccc2Br)nc1C=Nc1ccc(Br)cn1`, the AC50 under setting [2] was 3.55 µM [falling, partial curve, poor fit].

On to `O=C(Nc1ncc2c(n1)-c1ccccc1OC2)c1ccccc1Cl`, for which, under setting [2], the AC50 is 1.78 µM [falling, full curve, poor fit]. Take `Cc1ccc(C(=O)N2CCCC2)cc1Br`: the AC50 under setting [2] is 14.6 µM [rising, partial curve]. Consider `O=C1Cc2ccccc2Sc2ccc(Cl)cc21`, for which the AC50 under setting [2] is 17.8 µM [rising, single point]. Take `CCC(C)c1ccc(NC(=S)N2CCN(c3ccccn3)CC2)cc1` (stereo not drawn): under setting [2], the AC50 was 10 µM [falling, partial curve, poor fit]. Consider `O=[N+]([O-])c1cccc(NC(=S)N2CCN(c3ccccn3)CC2)c1`, for which the AC50 under setting [2] was 3.55 µM [rising, partial curve, poor fit]. On the same count and under the same terms, next, `Cc1ccc(C)c(C(=O)CSc2nc(N)cc(=O)[nH]2)c1`: 31.6 µM [rising, single point]; `Cc1nnc(NC(=O)CCC(=O)N2CCN(CCOc3cccc4ccccc34)CC2)s1`: 3.55 µM [rising, single point]; `CC(NC(=O)COC(=O)c1cn(-c2ccccc2)nc1-c1cccs1)c1ccccc1` (stereo not drawn): 20.6 µM [falling, single point].

For `CCc1ccc(NC2=NC(C(=O)c3ccccc3)CC(=O)N2)cc1` (stereo not drawn), the AC50 under setting [2] was 29.1 µM [rising, single point]. On to `O=C(O)CCN=Cc1c(O)c2ccccc2oc1=O`, for which the AC50 under setting [2] was 6.31 µM [falling, partial curve].

For `N#CCSc1nnc2ccc3ccccc3n12`, the concentration at half-maximal activity (AC50) under setting [2] was 3.26 µM [falling, single point].

In the case of `Clc1ccc(-c2nnc(N3CCCC3)nn2)cc1`, under setting [2], the AC50 was 1.26 µM [rising, full curve, poor fit]. In the case of `CCCCN(CC)CCNC(=O)c1cc2c(=O)n(C)c3ccccc3c2n1C`, the AC50 under setting [2] is 8.2 µM [falling, partial curve]. For `CC(C)(C)NC(=S)N/N=C/c1cc(Br)c(O)c(Br)c1`, under setting [1], the AC50 is 35.5 µM [falling, single point]. Regarding `CN(C)c1ccc(C(=S)NC2CCCCC2)cc1`, the AC50 under setting [2] is 2.51 µM [rising, partial curve]. On to `COc1ccc2nc(SCc3cccc(C)c3)nc(C)c2c1`, for which, under setting [2], the AC50 was 7.31 µM [rising, partial curve]. The same measure, in the same setting: with `COc1ccc(C(=O)Nc2nc3cc4c(cc3s2)OCCO4)c(OC)c1` the figure was 2.51 µM [rising, partial curve, poor fit]; with `Cc1ccc(C(=O)Nc2ccc(Cl)cc2C)c(Cl)c1`, 11.2 µM [rising, partial curve, poor fit]. Turning to `COc1ccc(/C=C2\SC(c3ccc(C)cc3)=NC2=O)cc1OC`, the AC50 under setting [2] was 29.1 µM [falling, single point].

For the compound `CCOC(=O)NC(=O)/C(C#N)=C\Nc1ccc(Cl)cc1Cl`, the AC50 under setting [2] is 0.355 µM [rising, full curve, poor fit]. For `CC(C)C(c1nnnn1Cc1ccccc1)N(Cc1ccco1)Cc1cccs1` (stereo not drawn), the AC50 under setting [2] is 15.8 µM [falling, single point]. For the compound `O=C(CN1C=NS(=O)(=O)c2ccccc21)Nc1ccccc1F`, under setting [2], the AC50 was 0.708 µM [falling, full curve]. Take `COc1ccccc1Oc1ccc2c(c1)C(=O)N(c1ccc(C)cc1)C2=O`: the AC50 under setting [2] was 3.55 µM [falling, single point]. As to `Nc1cccc(C(=O)Nc2ccc(N)cc2Cl)c1`, the AC50 under setting [2] is 10.3 µM [falling, single point]. Regarding `Cc1cccc(Nc2nc(-c3ccccn3)cs2)n1`, the AC50 under setting [2] was 2.59 µM [falling, full curve]. For `C=CCN(CC=C)C(=O)Nc1cc(OC)ccc1OC`, the AC50 under setting [2] is 5.62 µM [rising, single point]. Still for that read-out and setting: next, `CSc1nc(N)n(-c2cc(C(F)(F)F)ccn2)n1`: 0.316 µM [falling, full curve, poor fit]; `O=C(CSc1nncn1-c1ccccc1)Nc1cccc(S(=O)(=O)N2CCCCC2)c1`: 3.26 µM [falling, single point]. In the case of `COc1cccc(C2c3c(-c4cc(Cl)c(C)cc4O)n[nH]c3C(=O)N2Cc2cccnc2)c1` (stereo not drawn), the AC50 under setting [2] was 29.1 µM [falling, single point]. With `CCOC(=O)c1cc(NC(=O)c2cccs2)ccc1N1CCOCC1`, under setting [2], the AC50 is 11.2 µM [falling, partial curve, poor fit].

Turning to `COC(=O)c1cc(OC)c(OC)cc1NC(=O)c1csc(C)c1`, the AC50 under setting [2] is 2.82 µM [rising, full curve, poor fit].

As for `Cc1ccsc1/C=N/NC(=O)c1ccccn1`, the AC50 under setting [2] is 13 µM [falling, partial curve]. Regarding `CC(C)CN(C(=O)COC(=O)c1ccc2c(c1)NC(=O)CS2)C1CCS(=O)(=O)C1` (stereo not drawn), under setting [2], the AC50 is 25.1 µM [falling, single point]. On the same count and under the same terms, next, `N#CC(C#N)=C1C=C2C=C(N3CCCCCC3)CCC2CC1` (stereo not drawn): 10.3 µM [falling, single point]; `O=C(NCCCN1CCN(c2cccc(Cl)c2)CC1)c1nc(-c2ccncc2)no1`: 0.00731 µM [falling, full curve, poor fit].

As to `COc1cccc(N(CC(=O)N2CCc3ccccc3C2)S(C)(=O)=O)c1`, the AC50 under setting [2] is 29.1 µM [falling, single point]. `O=C(/C=C/Nc1ccc(S(=O)(=O)Nc2cnc3ccccc3n2)cc1)c1ccccc1`: the AC50 under setting [2] is 15.8 µM [rising, single point]. `CCOC(=O)c1c(CN2CCN(CC#N)CC2)n(C)c2cc(Br)c(OC)cc12`: the AC50 under setting [2] was 7.08 µM [falling, partial curve]. On to `Cc1c(C)c2ccc(OCC(=O)c3ccccc3)cc2oc1=O`, for which the AC50 under setting [2] was 0.251 µM [rising, full curve, poor fit]. `COc1ccc(N(Cc2cc3cccc(C)c3[nH]c2=O)S(C)(=O)=O)cc1`: the half-maximal activity concentration (AC50) under setting [2] was 32.6 µM [rising, single point]. Regarding `CCCCCCC12CCC(C(=O)O)(CC1)CC2`, under setting [2], the AC50 is 0.58 µM [rising, full curve, poor fit].

`COc1ccc2oc(C(=O)OCC(=O)N3C(C)CCCC3C)c(C)c2c1` (stereo not drawn): the AC50 under setting [2] was 11.2 µM [falling, single point]. For `COCCCn1c(SCC(=O)OC2CCCCC2)nnc1-c1ccco1`, under setting [2], the AC50 was 0.447 µM [falling, full curve, poor fit]. Turning to `COc1ccccc1Nc1ncnc2c1oc1ccccc12`, under setting [2], the AC50 is 3.98 µM [rising, full curve, poor fit].

Take `COc1cccc2sc3ccc(C#CC4(O)CCCCC4)cc3c(=O)c12`: under setting [2], the AC50 was 35.5 µM [falling, single point]. Take `Cc1nc2c(c(=O)n1Cc1ccco1)c1nc3ccccc3nc1n2Cc1ccccc1`: under setting [2], the AC50 was 5.8 µM [falling, partial curve]. For the compound `C(=N\Nc1ccccc1)/c1nc2ccccc2s1`, the AC50 under setting [2] was 12.6 µM [falling, partial curve, poor fit]. Still for that read-out and setting: with `O=C(N/N=C/c1ccccc1)c1ccc(OCc2ccccc2)cc1` the figure was 15.8 µM [falling, partial curve, poor fit]. As to `COC(=O)[C@H](Cc1ccccc1)NC(=O)NCc1cccs1`, the AC50 under setting [2] is 29.1 µM [rising, single point].

Take `CCOC(=O)Cc1csc(NC(=O)/C=C/c2ccc(OC)cc2)n1`: the AC50 under setting [2] was 0.631 µM [falling, full curve, poor fit].

Turning to `COc1ccc(C2=NN(CCC(=O)NCc3ccc4c(c3)OCO4)C(=O)CC2)cc1`, the AC50 under setting [2] is 6.51 µM [rising, single point]. On the same count and under the same terms, next, `CCCn1c(CN(Cc2ccccc2)Cc2ccccc2)nc2c1c(=O)n(C)c(=O)n2C`: 6.51 µM [falling, partial curve]; `N/C(=N/OCC(=O)Nc1cccc2ccccc12)c1nonc1N`: 1.12 µM [falling, full curve]. For the compound `COc1ccc(O)c(/C=N\NC(=O)CCn2nnc3ccccc32)c1`, under setting [2], the AC50 is 16.4 µM [falling, single point].

As to `CCOc1ccc(C2C(C(=O)Nc3ccccc3)=C(C)N=c3s/c(=C/c4cccc(OCC(=O)O)c4)c(=O)n32)cc1` (stereo not drawn), the AC50 under setting [2] is 15.8 µM [falling, single point]. For the compound `Cn1c(=O)c2c(nc(SCC(=O)N3CCc4ccccc4C3)n2C)n(C)c1=O`, the AC50 under setting [2] was 1.26 µM [falling, full curve].

For the compound `CC1=Nc2ccccc2/C1=C\c1nc(-c2ccc(F)cc2)oc1O`, under setting [2], the AC50 is 18.4 µM [rising, partial curve, poor fit].

The term AC50 denotes the concentration at which the activity in the assay is half-maximal.
